Data on 1 molecule can be found in paper PMC8136485, “Were Ancestral Proteins Less Specific?” (Molecular Biology and Evolution, 2021).

The assay deals with T1, biotinylated human S100A5 (Ser-Asn-Cys N-terminus) (human) (UniProt P33763).
T1 sequence (chain, BMCC-biotin on the single N-terminal Cys (maleimide-thiol reaction)): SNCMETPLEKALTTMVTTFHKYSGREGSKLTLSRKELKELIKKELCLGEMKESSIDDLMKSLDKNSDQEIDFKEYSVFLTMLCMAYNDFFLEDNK
As to the kind of experiment: phage display panning with deep sequencing; 0.01 μM biotin-protein with 5.5×10^11 PFU phage, 2 h room temperature, 50 mM TES, 100 mM NaCl, 2 mM CaCl2, 0.01% Tween-20, pH 7.4; captured on a streptavidin plate; eluted with 5 mM EDTA; with and without 20 μM competitor peptide; E from read …; only the target purified.

No constants are given. Whether binding was seen depends on the method and setting. Some entries that bind do so weakly or less than the wild type. Sequences can lack the tags named with a protein.

B1: phage-displayed peptide … (M13 pIII fusion) (peptide)
peptide: EGLDLMSILELIGGGSAE
Regarding B1, the binding result was “binds”.
